Measured values taken from publication PMC8760370, “Combinatorial inhibition of BTK, PI3K-AKT and BRD4-MYC as a strategy for treatment of mantle cell lymphoma” (Molecular Biomedicine, 2022).

Chains of the proteins cited; added tags and fusions are not shown. Lines headed by an entry give the natural chain unless they say otherwise; changes in a name come on top.
UniProt O00329, whole entry: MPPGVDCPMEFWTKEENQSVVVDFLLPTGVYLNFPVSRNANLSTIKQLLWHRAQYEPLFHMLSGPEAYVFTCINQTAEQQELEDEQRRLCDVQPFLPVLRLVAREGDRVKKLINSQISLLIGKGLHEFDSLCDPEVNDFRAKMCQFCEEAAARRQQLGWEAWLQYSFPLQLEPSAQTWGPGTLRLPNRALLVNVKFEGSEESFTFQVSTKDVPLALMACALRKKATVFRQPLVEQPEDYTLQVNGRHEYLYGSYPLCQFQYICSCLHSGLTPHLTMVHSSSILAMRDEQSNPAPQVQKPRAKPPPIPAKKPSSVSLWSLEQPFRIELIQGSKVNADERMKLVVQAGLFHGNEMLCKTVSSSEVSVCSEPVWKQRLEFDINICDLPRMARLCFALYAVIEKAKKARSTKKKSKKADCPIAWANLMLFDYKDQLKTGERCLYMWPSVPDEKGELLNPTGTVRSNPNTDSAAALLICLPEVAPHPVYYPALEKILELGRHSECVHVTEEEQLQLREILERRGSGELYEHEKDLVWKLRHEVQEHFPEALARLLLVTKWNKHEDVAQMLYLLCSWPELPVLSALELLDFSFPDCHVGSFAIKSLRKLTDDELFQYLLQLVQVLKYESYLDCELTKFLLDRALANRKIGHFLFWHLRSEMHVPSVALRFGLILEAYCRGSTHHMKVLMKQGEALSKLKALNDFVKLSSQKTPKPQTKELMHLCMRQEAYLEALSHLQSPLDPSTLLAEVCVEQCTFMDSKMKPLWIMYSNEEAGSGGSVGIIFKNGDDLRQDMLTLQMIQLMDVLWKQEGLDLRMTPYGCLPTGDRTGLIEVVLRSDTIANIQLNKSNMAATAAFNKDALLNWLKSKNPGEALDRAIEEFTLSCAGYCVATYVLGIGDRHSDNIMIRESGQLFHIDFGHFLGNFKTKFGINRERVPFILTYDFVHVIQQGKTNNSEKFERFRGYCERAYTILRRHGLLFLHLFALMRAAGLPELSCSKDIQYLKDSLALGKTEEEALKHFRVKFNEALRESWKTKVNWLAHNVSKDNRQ
UniProt P48736, whole entry: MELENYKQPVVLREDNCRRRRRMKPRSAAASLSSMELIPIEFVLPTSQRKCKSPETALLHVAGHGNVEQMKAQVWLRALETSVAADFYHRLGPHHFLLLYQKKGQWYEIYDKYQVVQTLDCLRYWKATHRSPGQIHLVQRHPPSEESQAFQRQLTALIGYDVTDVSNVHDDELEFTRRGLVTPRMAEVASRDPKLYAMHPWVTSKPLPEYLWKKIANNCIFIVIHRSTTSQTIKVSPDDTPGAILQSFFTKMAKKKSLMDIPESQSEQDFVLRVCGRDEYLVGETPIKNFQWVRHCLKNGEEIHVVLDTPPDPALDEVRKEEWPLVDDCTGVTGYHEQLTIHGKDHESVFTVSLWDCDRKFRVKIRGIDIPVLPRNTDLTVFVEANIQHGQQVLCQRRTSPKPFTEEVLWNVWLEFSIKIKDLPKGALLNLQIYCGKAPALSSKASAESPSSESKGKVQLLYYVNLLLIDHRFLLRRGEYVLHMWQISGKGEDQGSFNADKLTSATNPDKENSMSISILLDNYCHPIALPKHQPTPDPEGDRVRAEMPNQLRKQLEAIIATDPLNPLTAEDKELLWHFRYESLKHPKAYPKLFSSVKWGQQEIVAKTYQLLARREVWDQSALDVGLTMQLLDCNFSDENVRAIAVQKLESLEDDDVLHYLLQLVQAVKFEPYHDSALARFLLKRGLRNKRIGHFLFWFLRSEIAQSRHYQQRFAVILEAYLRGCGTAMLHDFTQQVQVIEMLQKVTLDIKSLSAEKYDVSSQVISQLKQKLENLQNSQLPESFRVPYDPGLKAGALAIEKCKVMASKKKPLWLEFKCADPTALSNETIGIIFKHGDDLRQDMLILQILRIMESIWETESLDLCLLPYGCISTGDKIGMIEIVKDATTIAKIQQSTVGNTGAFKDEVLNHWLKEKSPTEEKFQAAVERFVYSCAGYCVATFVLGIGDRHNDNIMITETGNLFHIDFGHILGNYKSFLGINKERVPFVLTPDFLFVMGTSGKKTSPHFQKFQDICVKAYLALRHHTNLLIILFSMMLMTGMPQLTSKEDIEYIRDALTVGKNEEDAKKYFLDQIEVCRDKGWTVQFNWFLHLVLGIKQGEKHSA
UniProt Q06187, whole entry C481S: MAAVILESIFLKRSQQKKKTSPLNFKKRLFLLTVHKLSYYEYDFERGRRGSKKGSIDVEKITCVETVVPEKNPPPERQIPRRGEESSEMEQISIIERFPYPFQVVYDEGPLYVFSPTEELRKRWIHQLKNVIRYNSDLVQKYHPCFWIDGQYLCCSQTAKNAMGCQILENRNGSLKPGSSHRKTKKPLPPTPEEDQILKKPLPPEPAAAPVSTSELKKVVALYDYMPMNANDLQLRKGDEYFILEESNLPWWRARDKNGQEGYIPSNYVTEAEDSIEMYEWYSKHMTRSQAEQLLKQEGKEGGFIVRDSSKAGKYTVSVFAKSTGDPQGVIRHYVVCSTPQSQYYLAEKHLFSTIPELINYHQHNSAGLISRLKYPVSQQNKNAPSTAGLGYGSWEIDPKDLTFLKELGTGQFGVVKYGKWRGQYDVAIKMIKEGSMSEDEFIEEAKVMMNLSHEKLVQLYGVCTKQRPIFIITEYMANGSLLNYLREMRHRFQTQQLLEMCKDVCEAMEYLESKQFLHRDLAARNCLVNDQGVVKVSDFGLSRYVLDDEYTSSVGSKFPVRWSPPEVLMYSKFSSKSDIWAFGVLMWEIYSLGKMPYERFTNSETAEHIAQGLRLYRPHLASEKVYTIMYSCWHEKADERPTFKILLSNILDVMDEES
UniProt Q06187, whole entry: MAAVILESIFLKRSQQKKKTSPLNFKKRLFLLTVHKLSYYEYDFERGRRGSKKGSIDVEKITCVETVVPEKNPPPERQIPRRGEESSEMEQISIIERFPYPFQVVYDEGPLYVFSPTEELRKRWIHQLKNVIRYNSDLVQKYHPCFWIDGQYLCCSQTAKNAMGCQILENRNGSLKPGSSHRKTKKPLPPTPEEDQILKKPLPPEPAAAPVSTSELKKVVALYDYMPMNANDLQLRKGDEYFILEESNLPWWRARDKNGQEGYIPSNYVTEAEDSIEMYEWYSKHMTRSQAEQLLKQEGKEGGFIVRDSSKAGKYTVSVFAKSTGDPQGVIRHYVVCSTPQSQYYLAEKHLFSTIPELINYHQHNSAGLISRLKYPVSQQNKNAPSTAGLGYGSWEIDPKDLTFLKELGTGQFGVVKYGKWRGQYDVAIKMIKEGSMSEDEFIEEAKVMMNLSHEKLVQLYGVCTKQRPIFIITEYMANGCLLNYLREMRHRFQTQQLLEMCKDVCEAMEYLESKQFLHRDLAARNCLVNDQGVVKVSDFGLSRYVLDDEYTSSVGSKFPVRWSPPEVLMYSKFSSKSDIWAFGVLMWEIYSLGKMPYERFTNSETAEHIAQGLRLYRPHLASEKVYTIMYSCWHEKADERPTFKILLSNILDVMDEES
UniProt P42336, whole entry: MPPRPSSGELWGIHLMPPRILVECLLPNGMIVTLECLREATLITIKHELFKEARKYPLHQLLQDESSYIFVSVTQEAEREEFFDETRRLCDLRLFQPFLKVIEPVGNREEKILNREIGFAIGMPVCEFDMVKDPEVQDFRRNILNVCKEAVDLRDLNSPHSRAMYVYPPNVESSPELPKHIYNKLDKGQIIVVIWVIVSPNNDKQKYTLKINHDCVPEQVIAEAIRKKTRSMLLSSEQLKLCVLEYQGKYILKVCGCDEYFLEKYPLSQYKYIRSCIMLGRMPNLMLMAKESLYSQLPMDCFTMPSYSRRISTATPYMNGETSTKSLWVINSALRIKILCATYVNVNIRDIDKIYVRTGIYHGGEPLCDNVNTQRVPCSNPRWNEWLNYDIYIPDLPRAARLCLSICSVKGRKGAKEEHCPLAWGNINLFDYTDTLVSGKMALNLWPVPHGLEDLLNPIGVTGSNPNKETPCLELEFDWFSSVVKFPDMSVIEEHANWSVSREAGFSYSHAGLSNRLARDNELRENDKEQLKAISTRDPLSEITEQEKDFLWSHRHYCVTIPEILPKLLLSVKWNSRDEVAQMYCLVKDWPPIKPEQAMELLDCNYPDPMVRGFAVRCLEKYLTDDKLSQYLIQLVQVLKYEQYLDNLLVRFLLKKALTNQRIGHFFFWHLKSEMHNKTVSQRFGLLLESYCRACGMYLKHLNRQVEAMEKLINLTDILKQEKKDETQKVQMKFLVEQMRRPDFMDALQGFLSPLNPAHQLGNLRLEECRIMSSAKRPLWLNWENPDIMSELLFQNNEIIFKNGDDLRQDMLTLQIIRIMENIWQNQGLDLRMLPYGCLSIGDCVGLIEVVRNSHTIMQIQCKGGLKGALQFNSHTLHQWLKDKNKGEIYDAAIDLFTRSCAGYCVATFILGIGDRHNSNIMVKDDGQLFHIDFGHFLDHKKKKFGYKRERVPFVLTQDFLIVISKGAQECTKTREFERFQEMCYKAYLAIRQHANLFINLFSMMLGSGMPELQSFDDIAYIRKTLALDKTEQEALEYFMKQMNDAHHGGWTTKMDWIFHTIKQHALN
UniProt P27986, whole entry partner: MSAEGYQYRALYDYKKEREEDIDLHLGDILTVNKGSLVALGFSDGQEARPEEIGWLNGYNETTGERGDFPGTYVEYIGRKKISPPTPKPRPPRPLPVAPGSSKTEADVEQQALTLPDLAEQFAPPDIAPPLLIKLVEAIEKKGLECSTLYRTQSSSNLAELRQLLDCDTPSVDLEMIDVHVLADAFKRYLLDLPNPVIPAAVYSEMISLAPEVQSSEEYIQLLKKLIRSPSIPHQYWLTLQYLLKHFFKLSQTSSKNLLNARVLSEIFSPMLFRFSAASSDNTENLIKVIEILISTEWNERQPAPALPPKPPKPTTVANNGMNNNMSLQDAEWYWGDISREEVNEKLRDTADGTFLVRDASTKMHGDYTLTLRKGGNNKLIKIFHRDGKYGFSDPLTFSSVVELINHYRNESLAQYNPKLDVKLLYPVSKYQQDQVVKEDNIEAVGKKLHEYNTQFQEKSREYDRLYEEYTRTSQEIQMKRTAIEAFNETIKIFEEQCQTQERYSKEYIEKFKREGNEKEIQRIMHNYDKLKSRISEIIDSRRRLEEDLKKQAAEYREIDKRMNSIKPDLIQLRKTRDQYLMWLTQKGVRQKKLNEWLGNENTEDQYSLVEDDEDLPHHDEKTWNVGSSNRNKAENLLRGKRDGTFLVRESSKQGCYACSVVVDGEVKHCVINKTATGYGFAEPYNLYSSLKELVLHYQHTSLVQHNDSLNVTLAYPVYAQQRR

Experiments:
[1] = system: Mino cells; assay: Cell cycle analysis, Mino; details: 1 µM, 24 h, increased from 12
[2] = target: PI3Kδ (Homo sapiens, UniProt O00329); assay: Adapta kinase activity assay, PI3Kδ; details: read-out: IC50, PI3Kδ
[3] = system: healthy donor peripheral blood mononuclear cells (PBMCs); assay: MTS cytotoxicity assay, healthy donor PBMCs; details: 48 h
[4] = system: Mino BTK C481S cells; assay: Cell viability assay, Mino BTK C481S; details: read-out: IC50, anti-proliferative activity, Mino BTK C481S; 48 h
[5] = system: BTK and AKT phosphorylation; assay: Inhibitor washout assay, Mino cells
[6] = target: T1, PI3Kγ (Homo sapiens, UniProt P48736); details: read-out: IC50, PI3Kγ; cited from earlier work
[7] = system: HS-5 bone marrow-derived stromal cell line; assay: MTS cytotoxicity assay, HS-5 stromal cells; details: 72 h
[8] = system: JeKo-1 cells; assay: Cell cycle analysis, JeKo-1; details: JeKo-1, 1 µM, 24 h
[9] = target: T1, PI3Kγ; assay: Adapta kinase activity assay, PI3Kγ; details: read-out: IC50, PI3Kγ
[10] = system: BTK/PI3K signaling (pBTK Y223, pAKT S473); assay: Western blot of BTK/PI3K signaling in IgM-stimulated MCL cells; details: 1 h
[11] = target: T2, BTK C481S (Ibrutinib-resistant mutant) (Homo sapiens, UniProt Q06187, C481S); assay: Kinase activity assay, BTK C481S; assay type: biochemical
[12] = target: PI3Kα (Homo sapiens, UniProt P42336); assay: Adapta kinase activity assay, PI3Kα; details: read-out: IC50, PI3Kα
[13] = system: cMYC and HEXIM1 expression; assay: qRT-PCR of cMYC and HEXIM1, JeKo-1 cells; details: 0.5 μM, 24 hr
[14] = target: T2, BTK C481S (Ibrutinib-resistant mutant); details: cited from earlier work
[15] = target: BTK WT (Homo sapiens, UniProt Q06187); assay: Kinase activity assay, BTK WT; assay type: biochemical; details: read-out: IC50, BTK WT
[16] = system: JeKo-1 cells; assay: Cell viability assay (alamarBlue / CellTiter-Glo), JeKo-1; assay type: cell-based, human; details: read-out: IC50, anti-proliferative activity, JeKo-1; 48 h
[17] = system: Mino cells; assay: Cell viability assay (alamarBlue / CellTiter-Glo), Mino; details: read-out: IC50, anti-proliferative activity, Mino; 48 h
[18] = system: JeKo-1 BTK C481S cells; assay: Cell viability assay, JeKo-1 BTK C481S; details: 48 h
[19] = system: Granta cells; assay: Cell viability assay (alamarBlue / CellTiter-Glo), Granta
[20] = Mino cells, 1 h treatment, washes with PBS
[21] = read-out: IC50, drug-resistant C481S mutant of BTK

## C=CC(=O)N1CCOc2ccc(-c3csc4c(=O)cc(N5CCOCC5)oc34)cc21
[1]
  cell population in G2 phase: 19%
[2]
  IC50: 4 nM
[3]
  toxicity to healthy donor PBMCs: minimally toxic
[4]
  IC50: 47 nM
[5]
  mode of inhibition: irreversible inhibitor
[5]; [20]
  AKT phosphorylation after inhibitor wash out: retained inhibition of AKT phosphorylation
  BTK phosphorylation after inhibitor wash out: retained inhibition of BTK phosphorylation
[6]
  IC50: 486 nM
[7]
  toxicity to bystander healthy stromal cells (HS-5): minimally toxic
[8]; increasing from 8
  cell population in G2 phase: 18%
[8]; increasing from 49
  cell population in S phase: 65%
[9]
  IC50: 163 nM
[10]; 0.5 μM, Mino cells
  inactivation of BTK/PI3K signaling versus Ibrutinib 1 μM and SRX3262 5 μM: to the same extent
[10]; IgM stimulated JeKo-1 and Mino cells
  activation of BTK (Tyr223) and AKT (Ser473): blocked activation of both BTK and AKT
[11]; read-out: IC50, BTK C481S
  IC50: 9140 nM
[11]; [21]
  IC50: 9000 nM
[12]
  IC50: 15 nM
[13]
  expression of HEXIM1: increase
  expression of cMYC: decrease
[14]; read-out: IC50, BTK C481S
  IC50: 25100 nM
[14]; [21]
  IC50: 25000 nM
[15]
  IC50: 6.5 nM
[16]
  IC50: 58 nM
[17]
  IC50: 1 nM
[18]; read-out: IC50, JeKo-1 BTK C481S
  IC50: 1000 nM
[18]; read-out: IC50, anti-proliferative activity, JeKo-1 BTK C481S
  IC50: 1020 nM
[19]; Fig. 3e, f
  anti-proliferative activity in Granta, an Ibrutinib-resistant cell line: dose dependent anti-proliferative activity
[19]; read-out: IC50, Granta cells, 48 h
  IC50: 1100 nM

Where two headings read alike, the source gives them in different places. The structures given here were assigned with low confidence; some may be wrong.
